One substance from publication doi:10.1101/2020.01.26.920405 can be followed below.

Protein sequences, listed by entry. Tags and fused reporters are not part of them.
UniProt P16455: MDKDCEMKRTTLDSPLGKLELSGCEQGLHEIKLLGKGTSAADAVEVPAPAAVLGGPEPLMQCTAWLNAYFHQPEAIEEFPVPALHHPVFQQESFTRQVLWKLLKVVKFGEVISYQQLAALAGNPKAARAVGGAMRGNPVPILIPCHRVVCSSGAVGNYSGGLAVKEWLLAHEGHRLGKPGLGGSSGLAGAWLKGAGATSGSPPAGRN
UniProt P09874: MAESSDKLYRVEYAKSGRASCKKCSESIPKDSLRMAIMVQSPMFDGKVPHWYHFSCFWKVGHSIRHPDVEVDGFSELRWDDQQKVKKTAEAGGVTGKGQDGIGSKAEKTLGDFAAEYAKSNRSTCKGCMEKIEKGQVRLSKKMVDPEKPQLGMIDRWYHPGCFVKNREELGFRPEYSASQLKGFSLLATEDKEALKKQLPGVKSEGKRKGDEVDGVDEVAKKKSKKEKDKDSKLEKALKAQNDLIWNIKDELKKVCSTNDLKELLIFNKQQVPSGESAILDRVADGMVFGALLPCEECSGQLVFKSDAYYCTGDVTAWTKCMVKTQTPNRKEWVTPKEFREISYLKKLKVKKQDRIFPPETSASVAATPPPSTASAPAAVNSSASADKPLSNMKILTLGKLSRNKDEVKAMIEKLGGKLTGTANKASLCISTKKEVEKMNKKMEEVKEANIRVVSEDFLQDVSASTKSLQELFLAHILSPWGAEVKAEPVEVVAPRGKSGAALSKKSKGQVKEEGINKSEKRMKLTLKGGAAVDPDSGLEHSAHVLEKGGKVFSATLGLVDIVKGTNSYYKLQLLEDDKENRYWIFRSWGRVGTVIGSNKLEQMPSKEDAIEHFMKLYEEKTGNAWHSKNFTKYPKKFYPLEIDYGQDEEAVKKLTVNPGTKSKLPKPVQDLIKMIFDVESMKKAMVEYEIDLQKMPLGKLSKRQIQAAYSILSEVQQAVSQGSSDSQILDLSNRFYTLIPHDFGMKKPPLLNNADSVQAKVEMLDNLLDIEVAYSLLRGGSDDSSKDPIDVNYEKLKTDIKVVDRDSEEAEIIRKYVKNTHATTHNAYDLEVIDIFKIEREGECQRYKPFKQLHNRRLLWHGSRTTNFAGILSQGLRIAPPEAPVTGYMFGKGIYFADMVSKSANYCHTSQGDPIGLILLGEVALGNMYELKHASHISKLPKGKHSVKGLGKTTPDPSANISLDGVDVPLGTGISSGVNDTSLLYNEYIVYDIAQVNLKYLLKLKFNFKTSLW

Results are given in words; binding and its absence hold for the method and conditions named. Binding seen in cells or lysates may run through a third protein. Some binding calls cover weakened binding; strength is not graded here.

The test addresses O6-methylguanine-DNA methyltransferase (MGMT), endogenous in EW-8 cells (human (endogenous in EW-8)) (UniProt P16455). The test can be described thus: co-IP.

As to “Poly(ADP-ribose) polymerase 1 (PARP1), endogenous in EW-8 cells (from UniProt P09874 1-1014)”, the binding result is on record as “binds”.
